Data on one molecule can be found in paper PMC3840788, “The role of Cdc42 and Gic1 in the regulation of septin filament formation and dissociation” (eLife, 2013).

These are yes or no findings as the source states them, for the method shown.

In assay [1] the target is T1, Cdc12 (subunit of the purified yeast septin complex) (yeast (S. cerevisiae)) (UniProt P32468).
T1 sequence: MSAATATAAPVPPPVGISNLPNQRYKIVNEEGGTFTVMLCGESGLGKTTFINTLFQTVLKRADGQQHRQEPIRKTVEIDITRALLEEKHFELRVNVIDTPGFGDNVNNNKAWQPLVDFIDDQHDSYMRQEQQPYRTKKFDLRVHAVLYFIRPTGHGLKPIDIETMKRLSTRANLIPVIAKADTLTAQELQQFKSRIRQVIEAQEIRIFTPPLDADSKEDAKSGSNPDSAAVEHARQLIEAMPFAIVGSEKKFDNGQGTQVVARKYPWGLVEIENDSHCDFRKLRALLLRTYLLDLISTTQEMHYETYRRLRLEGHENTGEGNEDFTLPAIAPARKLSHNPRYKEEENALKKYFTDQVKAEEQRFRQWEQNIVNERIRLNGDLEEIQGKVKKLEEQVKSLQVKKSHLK
The experiment in a line: negative-stain electron microscopy with single particle analysis; 0.3 µM septin hetero-oligomers, alone or with 1.5 µM Gic1, dialysed overnight at 4°C from high-salt buffer against low-salt buffer (100 mM NaCl, 20 mM Tris-HCl pH 7.5, 1 mM DTT); antibody labelling against Cdc11; adsorbed to a lipid monolayer; both purified.

Assay [2] concerns the target T2, septin-Cdc10Δ complex (Cdc3, Cdc11, Cdc12) (yeast (S. cerevisiae)) (UniProt P32457+P32458+P32468).
T2 sequence 1: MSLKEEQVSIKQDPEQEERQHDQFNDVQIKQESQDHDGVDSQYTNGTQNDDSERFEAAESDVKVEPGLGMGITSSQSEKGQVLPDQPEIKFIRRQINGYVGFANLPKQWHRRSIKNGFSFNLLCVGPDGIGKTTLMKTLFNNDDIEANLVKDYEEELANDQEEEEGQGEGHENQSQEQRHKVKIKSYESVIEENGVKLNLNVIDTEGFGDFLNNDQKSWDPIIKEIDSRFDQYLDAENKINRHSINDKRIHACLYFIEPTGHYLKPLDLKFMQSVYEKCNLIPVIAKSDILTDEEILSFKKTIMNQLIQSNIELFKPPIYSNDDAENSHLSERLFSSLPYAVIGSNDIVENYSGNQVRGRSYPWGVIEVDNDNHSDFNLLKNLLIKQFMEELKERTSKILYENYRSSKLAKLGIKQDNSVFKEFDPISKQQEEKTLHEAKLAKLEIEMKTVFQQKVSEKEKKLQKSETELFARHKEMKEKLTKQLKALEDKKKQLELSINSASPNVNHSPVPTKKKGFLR
T2 sequence 2: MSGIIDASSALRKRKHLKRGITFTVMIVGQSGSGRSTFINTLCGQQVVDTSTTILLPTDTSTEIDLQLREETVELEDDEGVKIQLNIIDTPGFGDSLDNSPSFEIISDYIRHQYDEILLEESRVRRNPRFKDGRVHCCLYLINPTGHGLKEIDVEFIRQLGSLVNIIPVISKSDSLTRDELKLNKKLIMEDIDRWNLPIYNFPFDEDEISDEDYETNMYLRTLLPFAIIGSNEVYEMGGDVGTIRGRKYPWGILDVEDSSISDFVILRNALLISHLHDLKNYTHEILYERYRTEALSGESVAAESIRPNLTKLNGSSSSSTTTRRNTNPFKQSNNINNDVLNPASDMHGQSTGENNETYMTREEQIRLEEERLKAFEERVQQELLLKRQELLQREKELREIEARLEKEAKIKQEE
T2 sequence 3: T1 sequence
The assay can be described thus: condition: 1.5 µM Gic1, 0.3 µM septin hetero-oligomers; negative-stain electron microscopy with single particle analysis; 0.3 µM septin hetero-oligomers, alone or with 1.5 µM Gic1, dialysed overnight at 4°C from high-salt buffer against low-salt buffer (100 mM NaCl, 20 mM Tris-HCl pH 7.5, 1 mM DTT); antibody labelling against Cdc11; adsorbed to a lipid monolayer; both purified.

B1: Gic1(104-314) (domain or fragment, yeast (S. cerevisiae), UniProt P38785 104-314, looked up)
chain: MFKKKDLLSRRHGSAKTAKQSSISTPFDFHHISHANGKREDNPLESHEEKHDVESLVKFTSLAPQPRPDSNVSSKYSNVVMNDSSRIVSSSTIATTMDSHHDGNETNNTPNGNKQLDSPTDLEMTLEDLRNYTFPSVLGDSVSEKTNPSSPSVSSFSGKFKPRELSALHTPELGNCFNVDQSLNSPGNRISVDDVLKFYYQCSETSTPRNT
notes: Gic1, yeast, residues 104-314 (N-terminal 103 amino acids deleted); gic1(310-942) in nucleotides; contains the CRIB domain and the C-terminus; Called simply Gic1 throughout the text; The methods say GST was cleaved with thrombin; Dimer by gel filtration; source: E. coli BL21 (DE3) Rosetta, purified (Ni-NTA, glutathione sepharose, Superdex S200)
Turning to B1, the binding result in assay [1] and in assay [2] was “no binding” in each case.
